Laboratory results taken from patent US20240400715A1.
No constants are given. Whether binding was seen depends on the method and setting. For some of these results: Binding calls can cover weak binding; strength is not graded here.

Assays:
[1] = molecular target: human CD3ε/δ (ACRO systems, CDD-H52W1) (human); assay: ELISA, coated antigen
Insulin (abs42019847) = assay: condition: ratio to PBS blank below 3; 100 nM antibody; ELISA on coated insulin

binding [1]	binding (Insulin (abs42019847))	Binder
binds		305 (TA6), configuration of FIG. 1W (bispecific antibody, IgG4) heavy: EVQLVQSGAEVKKPGASVKVSCKASGYTFTNYYIHWVRQAPGQGLEWIGWIYPGDGNTKYNEKFKGRATLTADTSTSTAYLELSSLRSEDTAVYYCARDSYSNYYFDYWGQGTLVTVSSASTKGPSVFPLAPCSRSTSESTAALGCLVKDYFPEPVTVSWNSGALTSGVHTFPAVLQSSGLYSLSSVVTVPSSSLGTKTYTCNVDHKPSNTKVDKRVESKYGPPCPPCPAPEAAGGPSVFLFPPKPKDTLMISRTPEVTCVVVDVSQEDPEVQFNWYVDGVEVHNAKTKPREEQFNSTYRVVSVLTVLHQDWLNGKEYKCKVSNKGLPSSIEKTISKAKGQPREPQVYTLPPCQEEMTKNQVSLWCLVKGFYPSDIAVEWESNGQPENNYKTTPPVLDSDGSFFLYSRLTVDKSRWQEGNVFSCSVMHEALHNHYTQKSLSLSL EVQLVESGGGFVQAGESLTLSCTSSTLTFTPYRMAWYRQAPGKQRDLVADISSGDGRTTNYADFAKGRFTISRDNIKNTVFLRMTNLKPEDTAVYYCNTFVSFVGIARSWGQGTQVTVSSESKYGPPCPPCPAPEAAGGPSVFLFPPKPKDTLMISRTPEVTCVVVDVSQEDPEVQFNWYVDGVEVHNAKTKPREEQFNSTYRVVSVLTVLHQDWLNGKEYKCKVSNKGLPSSIEKTISKAKGQPREPQVCTLPPSQEEMTKNQVSLSCAVKGFYPSDIAVEWESNGQPENNYKTTPPVLDSDGSFFLVSRLTVDKSRWQEGNVFSCSVMHEALHNRFTQKSLSLSL light: DIVMTQSPDSLAVSLGERATINCKSSQSLLNSRTRKNYLAWYQQKPGQPPKLLIYWASTRESGVPDRFSGSGSGTDFTLTISSLQAEDVAVYYCTQSFILRTFGQGTKVEIK
	no binding	CEA-Knob+Fab-Hole (104) (bispecific antibody, human IgG4 S228P, kappa, F234A L235A) EVQLVESGGGFVQAGESLTLSCTSSTLTFTPYRMAWYRQAPGKQRDLVADISSGDGRTTNYADFAKGRFTISRDNIKNTVFLRMTNLKPEDTAVYYCNTFVSFVGIARSWGQGTQVTVSSESKYGPPCPPCPAPEAAGGPSVFLFPPKPKDTLMISRTPEVTCVVVDVSQEDPEVQFNWYVDGVEVHNAKTKPREEQFNSTYRVVSVLTVLHQDWLNGKEYKCKVSNKGLPSSIEKTISKAKGQPREPQVYTLPPCQEEMTKNQVSLWCLVKGFYPSDIAVEWESNGQPENNYKTTPPVLDSDGSFFLYSRLTVDKSRWQEGNVFSCSVMHEALHNHYTQKSLSLSL heavy: EVKLLESGGGLVQPKGSLKLSCAASGFTFNTYAMNWVRQAPGKGLEWVARIRSKYNNYATYYADSVKDRFTISRDDSQSILYLQMNNLKTEDTAMYYCVRHGNFGNSYVSWFAYWGQGTLVTVSSASTKGPSVFPLAPCSRSTSESTAALGCLVKDYFPEPVTVSWNSGALTSGVHTFPAVLQSSGLYSLSSVVTVPSSSLGTKTYTCNVDHKPSNTKVDKRVESKYGPPCPPCPAPEAAGGPSVFLFPPKPKDTLMISRTPEVTCVVVDVSQEDPEVQFNWYVDGVEVHNAKTKPREEQFNSTYRVVSVLTVLHQDWLNGKEYKCKVSNKGLPSSIEKTISKAKGQPREPQVCTLPPSQEEMTKNQVSLSCAVKGFYPSDIAVEWESNGQPENNYKTTPPVLDSDGSFFLVSRLTVDKSRWQEGNVFSCSVMHEALHNRFTQKSLSLSL light: QAVVTQESALTTSPGETVTLTCRSSTGAVTTSNYANWVQEKPDHLFTGLIGGTNKRAPGVPARFSGSLIGDKAALTITGAQTEDEAIYFCALWYSNLWVFGGGTKVEIKRTVAAPSVFIFPPSDEQLKSGTASVVCLLNNFYPREAKVQWKVDNALQSGNSQESVTEQDSKDSTYSLSSTLTLSKADYEKHKVYACEVTHQGLSSPVTKSFNRGEC
binds		311 (TA6), configuration of FIG. 1X (bispecific antibody, IgG4) heavy: EVQLVQSGAEVKKPGASVKVSCKASGYTFTNYYIHWVRQAPGQGLEWIGWIYPGDGNTKYNEKFKGRATLTADTSTSTAYLELSSLRSEDTAVYYCARDSYSNYYFDYWGQGTLVTVSSASTKGPSVFPLAPCSRSTSESTAALGCLVKDYFPEPVTVSWNSGALTSGVHTFPAVLQSSGLYSLSSVVTVPSSSLGTKTYTCNVDHKPSNTKVDKRVESKYGPPCPPCPAPEAAGGPSVFLFPPKPKDTLMISRTPEVTCVVVDVSQEDPEVQFNWYVDGVEVHNAKTKPREEQFNSTYRVVSVLTVLHQDWLNGKEYKCKVSNKGLPSSIEKTISKAKGQPREPQVYTLPPCQEEMTKNQVSLWCLVKGFYPSDIAVEWESNGQPENNYKTTPPVLDSDGSFFLYSRLTVDKSRWQEGNVFSCSVMHEALHNHYTQKSLSLSLGGGGSGGGGSEVQLVESGGGFVQAGESLTLSCTSSTLTFTPYRMAWYRQAPGKQRDLVADISSGDGRTTNYADFAKGRFTISRDNIKNTVFLRMTNLKPEDTAVYYCNTFVSFVGIARSWGQGTQVTVSS ESKYGPPCPPCPAPEAAGGPSVFLFPPKPKDTLMISRTPEVTCVVVDVSQEDPEVQFNWYVDGVEVHNAKTKPREEQFNSTYRVVSVLTVLHQDWLNGKEYKCKVSNKGLPSSIEKTISKAKGQPREPQVCTLPPSQEEMTKNQVSLSCAVKGFYPSDIAVEWESNGQPENNYKTTPPVLDSDGSFFLVSRLTVDKSRWQEGNVFSCSVMHEALHNRFTQKSLSLSL light: DIVMTQSPDSLAVSLGERATINCKSSQSLLNSRTRKNYLAWYQQKPGQPPKLLIYWASTRESGVPDRFSGSGSGTDFTLTISSLQAEDVAVYYCTQSFILRTFGQGTKVEIK
	no binding	Fab-Knob+CEA-Hole (101) (bispecific antibody, human IgG4 S228P, kappa, F234A L235A) heavy: EVKLLESGGGLVQPKGSLKLSCAASGFTFNTYAMNWVRQAPGKGLEWVARIRSKYNNYATYYADSVKDRFTISRDDSQSILYLQMNNLKTEDTAMYYCVRHGNFGNSYVSWFAYWGQGTLVTVSSASTKGPSVFPLAPCSRSTSESTAALGCLVKDYFPEPVTVSWNSGALTSGVHTFPAVLQSSGLYSLSSVVTVPSSSLGTKTYTCNVDHKPSNTKVDKRVESKYGPPCPPCPAPEAAGGPSVFLFPPKPKDTLMISRTPEVTCVVVDVSQEDPEVQFNWYVDGVEVHNAKTKPREEQFNSTYRVVSVLTVLHQDWLNGKEYKCKVSNKGLPSSIEKTISKAKGQPREPQVYTLPPCQEEMTKNQVSLWCLVKGFYPSDIAVEWESNGQPENNYKTTPPVLDSDGSFFLYSRLTVDKSRWQEGNVFSCSVMHEALHNHYTQKSLSLSL EVQLVESGGGFVQAGESLTLSCTSSTLTFTPYRMAWYRQAPGKQRDLVADISSGDGRTTNYADFAKGRFTISRDNIKNTVFLRMTNLKPEDTAVYYCNTFVSFVGIARSWGQGTQVTVSSESKYGPPCPPCPAPEAAGGPSVFLFPPKPKDTLMISRTPEVTCVVVDVSQEDPEVQFNWYVDGVEVHNAKTKPREEQFNSTYRVVSVLTVLHQDWLNGKEYKCKVSNKGLPSSIEKTISKAKGQPREPQVCTLPPSQEEMTKNQVSLSCAVKGFYPSDIAVEWESNGQPENNYKTTPPVLDSDGSFFLVSRLTVDKSRWQEGNVFSCSVMHEALHNRFTQKSLSLSL light: QAVVTQESALTTSPGETVTLTCRSSTGAVTTSNYANWVQEKPDHLFTGLIGGTNKRAPGVPARFSGSLIGDKAALTITGAQTEDEAIYFCALWYSNLWVFGGGTKVEIKRTVAAPSVFIFPPSDEQLKSGTASVVCLLNNFYPREAKVQWKVDNALQSGNSQESVTEQDSKDSTYSLSSTLTLSKADYEKHKVYACEVTHQGLSSPVTKSFNRGEC
